Binding data for one molecule are collected here from publication PMC9352726 (Nature Communications, 2022).

Results are given in words; binding and its absence hold for the method and conditions named.

Experiment [1] has as its target purified recombinant YspE2, full length (Yersinia pestis). Put plainly: SPR; Biacore T200; […] (0–20 μM) […] (20 mM HEPES pH 7.4, 150 mM NaCl, 3.4 mM EDTA, 0.005% P20); 25 °C; both purified.
In experiment [2] the target is purified recombinant YspE1, full length (Yersinia pestis). The description is as above.

B1: human guanylate-binding protein 4 (hGBP4) used in SPR (protein, UniProt Q96PP9 1-640)
chain: MGERTLHAAVPTPGYPESESIMMAPICLVENQEEQLTVNSKALEILDKISQPVVVVAIVGLYRTGKSYLMNRLAGKRNGFPLGSTVQSETKGIWMWCVPHLSKPNHTLVLLDTEGLGDVEKSNPKNDSWIFALAVLLSSSFVYNSVSTINHQALEQLHYVTELAELIRAKSCPRPDEAEDSSEFASFFPDFIWTVRDFTLELKLDGNPITEDEYLENALKLIPGKNPKIQNSNMPRECIRHFFRKRKCFVFDRPTNDKQYLNHMDEVPEENLERHFLMQSDNFCSYIFTHAKTKTLREGIIVTGKRLGTLVVTYVDAINSGAVPCLENAVTALAQLENPAAVQRAADHYSQQMAQQLRLPTDTLQELLDVHAACEREAIAVFMEHSFKDENHEFQKKLVDTIEKKKGDFVLQNEEASAKYCQAELKRLSEHLTESILRGIFSVPGGHNLYLEEKKQVEWDYKLVPRKGVKANEVLQNFLQSQVVVEESILQSDKALTAGEKAIAAERAMKEAAEKEQELLREKQKEQQQMMEAQERSFQEYMAQMEKKLEEERENLLREHERLLKHKLKVQEEMLKEEFQKKSEQLNKEINQLKEKIESTKNEQLRLLKILDMASNIMIVTLPGASKLLGVGTKYLGSRI
Regarding B1, the binding entry in experiment [1] and in experiment [2] was “no binding” in each case.
